Results deposited as PubChem BioAssay AID1053208 (Peter MacCallum Cancer Centre, 2014).
The deposit covers about 17,000 reagents; this is an unselected part. In the full data, 788 (4.7%) got an active call. 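Calls rest on z-score classes alone; an extra cut-off of viability at most 70% of control was not applied to them.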 Entries without a mark were called inactive. The numbers tell different reagents against one gene apart. Not all columns of the deposit are shown.

Test: 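Genes whose silencing cuts survival of bone tumour cells only with doxorubicin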 (primary screen)
Cell system: mouse osteosarcoma cells, early-passage culture from an engineered mouse model of fibroblastic bone tumour
Reagents: siRNA pool against mouse genes, 40 nM
Duration: about 120 h (48 h before drug, then 72 h with drug)
Treatment: doxorubicin 100 nM for 72 h, roughly 30-40% inhibitory dose
Read-out: 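Luminescent ATP signal taken as viability with or without 100 nM doxorubicin for 72 h; mean of two wells set against non-targeting siRNA and turned into robust z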
Direction: viability z-score with doxorubicin: higher = more viable cells under doxorubicin; viability z-score without drug: higher = more viable cells with knock-down alone
Active means: 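a pool counts as active when its viability z-score with doxorubicin is -2 or below and its z-score without drug lies between -2 and 2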

gene knocked down	pool no.	combined z-score class	viability z-score with doxorubicin	viability z-score without drug
Ccn4 (cellular communication network factor 4)	1	no change with or without drug	0.67	-0.17
Sirt6 (sirtuin 6)	1	no change with or without drug	0.9	0.17
Crybg3 (beta-gamma crystallin domain containing 3)	1	no change with or without drug	-0.34	-0.51
Krt81 (keratin 81)	1	no change with or without drug	0.34	1.85
Tbc1d20 (TBC1 domain family, member 20)	1	no change with or without drug	0.9	0.67
Serpinb1b (serine (or cysteine) peptidase inhibitor, clade B, member 1b)	1	no change with or without drug	0.67	0.34
Pspc1 (paraspeckle protein 1)	1	high cell count with and without drug	3.71	3.37
Mtmr11 (myotubularin related protein 11)	1	no change with or without drug	-1.57	-0.84
Fem1c (fem 1 homolog c)	1	no change with or without drug	-0.67	0.17
Fem1c (fem 1 homolog c)	2	no change with or without drug	0.67	0.51
Lancl3 (LanC lantibiotic synthetase component C-like 3 (bacterial))	1	no change with or without drug	-0.9	0.17
Spsb2 (splA/ryanodine receptor domain and SOCS box containing 2)	1	no change with or without drug	-0.9	-0.84
Tns1 (tensin 1)	1	no change with or without drug	-1.57	-0.84
Or5p56 (olfactory receptor family 5 subfamily P member 56)	1	no change with or without drug	0.45	-0.84
Cntfr (ciliary neurotrophic factor receptor)	1	no change with or without drug	-0.22	0
Rgs14 (regulator of G-protein signaling 14)	1	no change with or without drug	0.67	-1.18
Tnmd (tenomodulin)	1	low cell count with doxorubicin only (active)	-2.02	-0.84
Ccdc70 (coiled-coil domain containing 70)	1	no change with or without drug	-1.12	-0.84
Elovl7 (ELOVL fatty acid elongase 7)	1	no change with or without drug	0.22	0.67
Rps23 (ribosomal protein S23)	1	low cell count with and without drug	-4.72	-2.36
Mx2 (MX dynamin-like GTPase 2)	1	no change with or without drug	0	-0.51
Prim2 (DNA primase, p58 subunit)	1	no change with or without drug	-1.12	-0.51
Pola1 (polymerase (DNA directed), alpha 1)	1	low cell count with doxorubicin only (active)	-2.25	-0.17
Or13p4 (olfactory receptor family 13 subfamily P member 4)	1	no change with or without drug	0.79	-0.84
Fdxr (ferredoxin reductase)	1	no change with or without drug	-0.9	0.51
Sh2d1b1 (SH2 domain containing 1B1)	1	no change with or without drug	-0.45	0.67
Tas2r123 (taste receptor, type 2, member 123)	1	no change with or without drug	-0.22	0
Ndufa1 (NADH:ubiquinone oxidoreductase subunit A1)	1	low cell count with and without drug	-2.25	-3.54
Fbxw16 (F-box and WD-40 domain protein 16)	1	no change with or without drug	0.11	0.51
Tmem179b (transmembrane protein 179B)	1	no change with or without drug	0.56	1.01
Ankrd34b (ankyrin repeat domain 34B)	1	no change with or without drug	1.24	1.01
Tent2 (terminal nucleotidyltransferase 2)	1	no change with or without drug	0.22	0.51
Ncam1 (neural cell adhesion molecule 1)	1	no change with or without drug	0.22	-0.84
Dppa3 (developmental pluripotency-associated 3)	1	no change with or without drug	0	0
Scai (suppressor of cancer cell invasion)	1	high cell count without drug only	0.67	2.53
Cacna1d (calcium channel, voltage-dependent, L type, alpha 1D subunit)	1	no change with or without drug	-0.9	0.84
Ttc28 (tetratricopeptide repeat domain 28)	1	no change with or without drug	0.22	1.18
Ppargc1b	1	no change with or without drug	0.67	0.51
Hrg (histidine-rich glycoprotein)	1	no change with or without drug	-0.45	-0.51
B230354K17Rik (RIKEN cDNA B230354K17 gene)	1	no change with or without drug	0	-0.17
Cd300ld (CD300 molecule like family member d)	1	no change with or without drug	-0.11	0.84
Luzp2 (leucine zipper protein 2)	1	no change with or without drug	0.56	-0.17
Ttc17 (tetratricopeptide repeat domain 17)	1	low cell count without drug only	-1.8	-2.53
Etfb (electron transferring flavoprotein, beta polypeptide)	1	no change with or without drug	0.34	1.01
Syt7 (synaptotagmin VII)	1	no change with or without drug	0.67	-0.67
Atic	1	low cell count with and without drug	-2.25	-2.19
Rere (arginine glutamic acid dipeptide (RE) repeats)	1	no change with or without drug	0.11	0.17
Cebpa (CCAAT/enhancer binding protein alpha)	1	no change with or without drug	0	-0.51
Atp4b (ATPase, H+/K+ exchanging, beta polypeptide)	1	no change with or without drug	0.22	0.84
Nudt15 (nudix hydrolase 15)	1	no change with or without drug	0	-1.52
